These results are taken from PMC12955996.

By UniProt entry, the sequences of proteins in these tests, tags left out. Where a name states a change or a piece, a line headed by the entry shows the natural chain unless it says otherwise.
UniProt Q8BH61: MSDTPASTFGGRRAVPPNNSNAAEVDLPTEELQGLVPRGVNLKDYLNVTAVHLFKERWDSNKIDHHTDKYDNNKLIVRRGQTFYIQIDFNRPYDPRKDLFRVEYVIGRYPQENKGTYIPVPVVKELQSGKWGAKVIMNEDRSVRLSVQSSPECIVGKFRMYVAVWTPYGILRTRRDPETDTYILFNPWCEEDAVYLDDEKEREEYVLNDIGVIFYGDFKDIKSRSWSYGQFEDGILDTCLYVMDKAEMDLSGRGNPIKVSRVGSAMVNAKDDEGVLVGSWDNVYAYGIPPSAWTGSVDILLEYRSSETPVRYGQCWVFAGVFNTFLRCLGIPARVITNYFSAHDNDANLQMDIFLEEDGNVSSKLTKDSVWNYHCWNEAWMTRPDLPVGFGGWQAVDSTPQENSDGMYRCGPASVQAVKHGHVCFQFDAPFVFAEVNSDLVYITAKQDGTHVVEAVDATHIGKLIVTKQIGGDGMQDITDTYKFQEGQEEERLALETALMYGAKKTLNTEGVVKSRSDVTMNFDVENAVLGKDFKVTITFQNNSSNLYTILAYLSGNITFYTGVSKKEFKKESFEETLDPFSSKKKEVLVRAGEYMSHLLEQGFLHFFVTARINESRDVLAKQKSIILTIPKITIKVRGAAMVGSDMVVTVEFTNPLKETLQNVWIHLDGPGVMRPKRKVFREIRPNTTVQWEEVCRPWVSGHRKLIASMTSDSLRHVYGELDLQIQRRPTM
UniProt P52480: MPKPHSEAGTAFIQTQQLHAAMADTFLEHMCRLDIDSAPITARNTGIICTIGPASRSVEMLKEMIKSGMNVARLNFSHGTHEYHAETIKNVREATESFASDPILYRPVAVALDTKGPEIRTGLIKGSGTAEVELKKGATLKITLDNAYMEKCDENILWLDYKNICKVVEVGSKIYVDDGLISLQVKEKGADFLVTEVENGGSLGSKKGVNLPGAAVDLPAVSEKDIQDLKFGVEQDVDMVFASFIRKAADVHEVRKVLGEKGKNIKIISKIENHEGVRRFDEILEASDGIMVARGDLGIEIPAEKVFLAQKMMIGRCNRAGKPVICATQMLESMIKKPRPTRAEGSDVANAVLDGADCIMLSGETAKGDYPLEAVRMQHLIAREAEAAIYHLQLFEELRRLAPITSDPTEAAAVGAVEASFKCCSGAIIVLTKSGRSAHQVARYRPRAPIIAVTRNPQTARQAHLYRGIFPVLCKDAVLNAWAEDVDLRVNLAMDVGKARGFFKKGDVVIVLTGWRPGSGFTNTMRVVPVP

The target of one test is Flag‐tagged F13A1 (UniProt Q8BH61). Nature of the test: co-IP; HEK293T co-transfected with Flag‐F13A1 and HA‐PKM2 (24 h), with or without ionomycin (2 µM, 12 h); anti‐Flag and anti‐HA magnetic beads, overnight at 4°C, Western blot. A general note: A western blot detects proteins with antibodies after separation by electrophoresis.
In test [1] the target is Coagulation Factor XIII Subunit A (F13A1) (mouse (endogenous in BMDMs)) (UniProt Q8BH61). The test can be described thus: co-IP; BMDM lysates, anti‐F13A1 antibody on Protein A/G magnetic beads, overnight at 4°C, Western blot; cells exposed 24 h to HCM or HCM‐PA; in one panel pretreated with BAPTA‐AM (5 µM, 2 h).

Results are given in words; binding and its absence hold for the method and conditions named. In cells and extracts the contact can be indirect. Binding calls can cover weak binding; strength is not graded here.

For “HA‐tagged PKM2 (from UniProt P52480 1-531)”, in the test with Flag‐tagged F13A1, the binding entry is listed as “binds”.

On to “pyruvate kinase M2 isoform (PKM2) (from UniProt P52480 1-531)”, for which the binding entry in test [1] is listed as “binds”.
